# Source: US4451485A, “Treatment of cardio-vascular diseases with 3-(2,2,2-trimethylhydrazinium) propionate dihydrate” (Institu Organicheskogo Sinteza Akademii Nauk Latviiskoi SSR, priority 1981, dated 1984)
# Assays:
# [1] = Threshold of electric fibrillation of auricles and ventricles in cats; format: in vivo
# Procedure: Furthermore, the preparation according to the present invention was tested for specific antiarrhythmic and antianginal effects. […] The effect of the novel pharmaceutical composition according to the present invention was studied on cats weighing 2.9-3.6 kg. The preparation was used as a 10% aqueous solution containing 3-(2,2,2-trimethylhydrazinium)propionate for the determination of the threshold value of electric fibrillation of auricles and ventricles. Under artificial respiration after opening of the thorax and pericardium, needle-like electrodes were applied to the right auricula and apex of the left ventricle. The irritation was effected by square pulses of 1 m.s., 15 st/s.
# For the comparison of preparations, as the criterion of the range of therapeutic effect, there was used the ratio of the half-lethal dose to the half-effective dose (LD50 /ED50) which was referred to as the antiarrhythmic index. […] The comparative study of the antiarrhythmic activity of pharmaceutical preparations using an acotine model of arrhythmia was effected in experiments on white rats weighing 190-240 g. The test preparations were administered intraperitoneally 10-40 minutes before administration of aconitine.
# [2] = Strophanthin arrhythmia in guinea pigs (450 μg/kg); conditions: guinea pig, in vivo
# Procedure: As the third model of arrhythmia, there was used strophanthin arrhythmia in guinea pigs. […] Against the background of arrhythmia the test preparations were administered intravenously.
# in vivo = assay: in vivo; set-up: species or system white mice; conditions: mouse
# Description: Acute toxicity of pharmaceutical compositions in
# experiments on white mice at intravenous administration.
# Aconitine ar- at intrave-
structure (smiles),measurement,setting,value
CCN(CC)CC(=O)Nc1c(C)cccc1C [Lidocain],ED50,"[1]; Felis catus, iv, read-out: ED50, electric irritation of cat's heart",3 ± 0.3 mg/kg
same,"Antiarrhythmic index LD50/ED50, electric irritation of cat's heart",[1]; intravenous,13
same,"Antiarrhythmic index LD50/ED50, Strophanthin arrhythmia in guinea pigs",[2],11
same,Toxicity relative to the composition of the invention,in vivo,substantially higher toxicity
same,LD50,"in vivo; white mice, intravenous (Table 5), read-out: Acute toxicity, LD50",40 mg/kg
